Test results reported in article PMC5707354 (Nature Communications, 2017).
Results are given in words; binding and its absence hold for the method and conditions named. For some assays here: In cells and extracts the contact can be indirect. Some entries that bind do so weakly or less than the wild type.

Chains of the proteins cited; added tags and fusions are not shown. Lines headed by an entry give the natural chain unless they say otherwise; changes in a name come on top. A line that says so, or that is headed by a name, gives the form on record, which may keep a tag or linker.
His-tagged NCBD_(1060-1120) (Q9UM54, form named): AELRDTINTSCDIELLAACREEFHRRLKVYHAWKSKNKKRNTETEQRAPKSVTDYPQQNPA
His-tagged NMVI_(TAIL) (Q9UM54, form named): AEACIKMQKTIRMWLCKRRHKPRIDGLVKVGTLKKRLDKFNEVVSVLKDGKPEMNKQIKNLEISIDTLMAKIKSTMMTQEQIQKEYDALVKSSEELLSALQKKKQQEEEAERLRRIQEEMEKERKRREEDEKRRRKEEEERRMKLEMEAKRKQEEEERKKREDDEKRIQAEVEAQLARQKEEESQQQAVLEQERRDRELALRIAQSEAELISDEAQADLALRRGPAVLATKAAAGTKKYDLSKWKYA

B1: NDP52, endogenous (HeLa) (protein, UniProt Q13137 1-446)
chain: MEETIKDPPTSAVLLDHCHFSQVIFNSVEKFYIPGGDVTCHYTFTQHFIPRRKDWIGIFRVGWKTTREYYTFMWVTLPIDLNNKSAKQQEVQFKAYYLPKDDEYYQFCYVDEDGVVRGASIPFQFRPENEEDILVVTTQGEVEEIEQHNKELCKENQELKDSCISLQKQNSDMQAELQKKQEELETLQSINKKLELKVKEQKDYWETELLQLKEQNQKMSSENEKMGIRVDQLQAQLSTQEKEMEKLVQGDQDKTEQLEQLKKENDHLFLSLTEQRKDQKKLEQTVEQMKQNETTAMKKQQELMDENFDLSKRLSENEIICNALQRQKERLEGENDLLKRENSRLLSYMGLDFNSLPYQVPTSDEGGARQNPGLAYGNPYSGIQESSSPSPLSIKKCPICKADDICDHTLEQQQMQPLCFNCPICDKIFPATEKQIFEDHVFCHSL
B2: CoCoA (recombinant) (protein, UniProt Q9P1Z2 1-691)
chain: MEESPLSRAPSRGGVNFLNVARTYIPNTKVECHYTLPPGTMPSASDWIGIFKVEAACVRDYHTFVWSSVPESTTDGSPIHTSVQFQASYLPKPGAQLYQFRYVNRQGQVCGQSPPFQFREPRPMDELVTLEEADGGSDILLVVPKATVLQNQLDESQQERNDLMQLKLQLEGQVTELRSRVQELERALATARQEHTELMEQYKGISRSHGEITEERDILSRQQGDHVARILELEDDIQTISEKVLTKEVELDRLRDTVKALTREQEKLLGQLKEVQADKEQSEAELQVAQQENHHLNLDLKEAKSWQEEQSAQAQRLKDKVAQMKDTLGQAQQRVAELEPLKEQLRGAQELAASSQQKATLLGEELASAAAARDRTIAELHRSRLEVAEVNGRLAELGLHLKEEKCQWSKERAGLLQSVEAEKDKILKLSAEILRLEKAVQEERTQNQVFKTELAREKDSSLVQLSESKRELTELRSALRVLQKEKEQLQEEKQELLEYMRKLEARLEKVADEKWNEDATTEDEEAAVGLSCPAALTDSEDESPEDMRLPPYGLCERGDPGSSPAGPREASPLVVISQPAPISPHLSGPAEDSSSDSEAEDEKSVLMAAVQSGGEEANLLLPELGSAFYDMASGFTVGTLSETSTGGPATPTWKECPICKERFPAESDKDALEDHMDGHFFFSTQDPFTFE

Columns and labels:
[1] = molecular target: His-tagged NCBD_(1060-1120) (human) (UniProt Q9UM54); experiment: pull-down; His-tagged recombinant bait on Ni beads, HeLa nuclear extract (50 mM Tris-HCl pH 7.5, 500 mM NaCl, 40 mM imidazole, 1 mM DTT, 1% Triton X), 30 min; immunoblot against NDP52 or RNAPII phospho S5; only the target purified
[2] = molecular target: His-tagged NMVI_(TAIL) (human) (UniProt Q9UM54); experiment: pull-down; His-tagged NMVI_TAIL bait on His Mag Sepharose Ni beads; bait and prey both at 10 uM (CBD) or 5 uM (CoCoA); 50 mM Tris-HCl pH 7.5, 500 mM NaCl, 40 mM imidazole, 1 mM DTT, 30 min, 25 C; SDS-PAGE of pellet and supernatant; both purified

Binder	binding [1]	binding [2]
B1	binds	
B2		binds
